PubChem BioAssay AID1508597 | Cure First | 2020

Assay: 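Knock-downs altering ovarian cancer cell survival with or without PARP inhibitor rucaparib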 (primary screen)
Cell system: human ovarian carcinoma lines grown from tumours: OCI-P5x (papillary serous) and OCI-C5x (clear cell)
Reagent: siRNA pool against human genes, 1.25 pmol siRNA per well
Time to read-out: 72 h or 96 h, depending on the cell culture
Challenge: rucaparib 20 µM (about IC30) or vehicle, present until read-out
Measured: 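ATP luminescence measured at 72 or 96 h according to the culture, then normalised and expressed as percent viability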
Scale: viability, normalised: higher = more viable cells remaining
Hit rule: 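Active when normalised viability falls below 80 percent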
Meaning of the calls: active = viability under 80%; inactive = viability 80% or more
Shown is an unselected part of about 2,100 deposited reagents. 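Calls flag viability under 80% in either arm, not effects specific to rucaparib; the reference for percent is not stated.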 Some reagents were tested in more than one well and are listed for each. The record does not give: the 100% reference.

| target gene | rucaparib or vehicle | cell line | technical replicate | viability, normalised (%) | outcome |
| --- | --- | --- | --- | --- | --- |
| SOX1 | Rucaparib | OCI-C5x (clear cell) | 1 | 37.8 | active |
| SOX1 | Rucaparib | OCI-C5x (clear cell) | 2 | 45.8 | active |
| SOX1 | Rucaparib | OCI-C5x (clear cell) | 3 | 42.7 | active |
| SOX1 | Rucaparib | OCI-P5x (serous) | 1 | 34 | active |
| SOX1 | Rucaparib | OCI-P5x (serous) | 2 | 39.8 | active |
| SOX1 | Rucaparib | OCI-P5x (serous) | 3 | 58 | active |
| SOX1 | Vehicle | OCI-C5x (clear cell) | 1 | 43.9 | active |
| SOX1 | Vehicle | OCI-C5x (clear cell) | 2 | 32.1 | active |
| SOX1 | Vehicle | OCI-C5x (clear cell) | 3 | 49.6 | active |
| SOX1 | Vehicle | OCI-P5x (serous) | 1 | 45.1 | active |
| SOX1 | Vehicle | OCI-P5x (serous) | 2 | 38 | active |
| SOX1 | Vehicle | OCI-P5x (serous) | 3 | 63.4 | active |

5 entries from above, reformatted.
target gene,rucaparib or vehicle,cell line,technical replicate,"viability, normalised (%)",outcome
SOX1,Rucaparib,OCI-C5x (clear cell),3,42.7,active
SOX1,Rucaparib,OCI-P5x (serous),1,34,active
SOX1,Rucaparib,OCI-P5x (serous),2,39.8,active
SOX1,Rucaparib,OCI-P5x (serous),3,58,active
SOX1,Vehicle,OCI-C5x (clear cell),1,43.9,active

More reagents follow:
| target gene | rucaparib or vehicle | cell line | technical replicate | viability, normalised (%) | outcome |
| --- | --- | --- | --- | --- | --- |
| TNKS2 | Rucaparib | OCI-C5x (clear cell) | 1 | 69.3 | active |
| TNKS2 | Rucaparib | OCI-C5x (clear cell) | 1 | 39.6 | active |
| TNKS2 | Rucaparib | OCI-C5x (clear cell) | 2 | 34.2 | active |
| TNKS2 | Rucaparib | OCI-C5x (clear cell) | 2 | 72.5 | active |
| TNKS2 | Rucaparib | OCI-C5x (clear cell) | 3 | 70.7 | active |
| TNKS2 | Rucaparib | OCI-C5x (clear cell) | 3 | 26.1 | active |
| TNKS2 | Rucaparib | OCI-P5x (serous) | 1 | 50.8 | active |
| TNKS2 | Rucaparib | OCI-P5x (serous) | 1 | 75.7 | active |
| TNKS2 | Rucaparib | OCI-P5x (serous) | 2 | 88 | inactive |
| TNKS2 | Rucaparib | OCI-P5x (serous) | 2 | 55.1 | active |
| TNKS2 | Rucaparib | OCI-P5x (serous) | 3 | 73.5 | active |
| TNKS2 | Rucaparib | OCI-P5x (serous) | 3 | 49 | active |
| TNKS2 | Vehicle | OCI-C5x (clear cell) | 1 | 57.1 | active |
| TNKS2 | Vehicle | OCI-C5x (clear cell) | 1 | 25.1 | active |
| TNKS2 | Vehicle | OCI-C5x (clear cell) | 2 | 72.5 | active |
| TNKS2 | Vehicle | OCI-C5x (clear cell) | 2 | 31.8 | active |
| TNKS2 | Vehicle | OCI-C5x (clear cell) | 3 | 29.3 | active |
| TNKS2 | Vehicle | OCI-C5x (clear cell) | 3 | 61.9 | active |
| TNKS2 | Vehicle | OCI-P5x (serous) | 1 | 44.4 | active |
| TNKS2 | Vehicle | OCI-P5x (serous) | 1 | 65.7 | active |
| TNKS2 | Vehicle | OCI-P5x (serous) | 2 | 67.9 | active |
| TNKS2 | Vehicle | OCI-P5x (serous) | 2 | 75.9 | active |
| TNKS2 | Vehicle | OCI-P5x (serous) | 3 | 75 | active |
| TNKS2 | Vehicle | OCI-P5x (serous) | 3 | 99.8 | inactive |
